In PMC10602086:
These are yes or no findings as the source states them, for the method shown. Binding seen in cells or lysates may run through a third protein. Some binding calls cover weakened binding; strength is not graded here.

The chains behind the UniProt entries cited, without tags or fusion partners. Where a name states a change or a piece, a line headed by the entry shows the natural chain unless it says otherwise.
UniProt O75030: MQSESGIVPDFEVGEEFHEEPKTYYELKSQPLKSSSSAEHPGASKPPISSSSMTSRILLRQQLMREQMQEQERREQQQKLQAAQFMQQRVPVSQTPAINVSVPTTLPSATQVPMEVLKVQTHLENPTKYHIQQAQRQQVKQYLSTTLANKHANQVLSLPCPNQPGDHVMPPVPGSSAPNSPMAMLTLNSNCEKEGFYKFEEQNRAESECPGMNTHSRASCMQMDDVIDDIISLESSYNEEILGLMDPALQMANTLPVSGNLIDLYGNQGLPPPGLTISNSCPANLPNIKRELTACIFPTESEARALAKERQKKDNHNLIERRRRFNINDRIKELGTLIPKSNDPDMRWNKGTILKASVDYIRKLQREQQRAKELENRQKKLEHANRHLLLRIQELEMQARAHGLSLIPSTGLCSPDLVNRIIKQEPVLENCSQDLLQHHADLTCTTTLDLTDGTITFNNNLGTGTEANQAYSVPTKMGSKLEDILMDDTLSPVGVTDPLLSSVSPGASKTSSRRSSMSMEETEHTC
UniProt Q14974: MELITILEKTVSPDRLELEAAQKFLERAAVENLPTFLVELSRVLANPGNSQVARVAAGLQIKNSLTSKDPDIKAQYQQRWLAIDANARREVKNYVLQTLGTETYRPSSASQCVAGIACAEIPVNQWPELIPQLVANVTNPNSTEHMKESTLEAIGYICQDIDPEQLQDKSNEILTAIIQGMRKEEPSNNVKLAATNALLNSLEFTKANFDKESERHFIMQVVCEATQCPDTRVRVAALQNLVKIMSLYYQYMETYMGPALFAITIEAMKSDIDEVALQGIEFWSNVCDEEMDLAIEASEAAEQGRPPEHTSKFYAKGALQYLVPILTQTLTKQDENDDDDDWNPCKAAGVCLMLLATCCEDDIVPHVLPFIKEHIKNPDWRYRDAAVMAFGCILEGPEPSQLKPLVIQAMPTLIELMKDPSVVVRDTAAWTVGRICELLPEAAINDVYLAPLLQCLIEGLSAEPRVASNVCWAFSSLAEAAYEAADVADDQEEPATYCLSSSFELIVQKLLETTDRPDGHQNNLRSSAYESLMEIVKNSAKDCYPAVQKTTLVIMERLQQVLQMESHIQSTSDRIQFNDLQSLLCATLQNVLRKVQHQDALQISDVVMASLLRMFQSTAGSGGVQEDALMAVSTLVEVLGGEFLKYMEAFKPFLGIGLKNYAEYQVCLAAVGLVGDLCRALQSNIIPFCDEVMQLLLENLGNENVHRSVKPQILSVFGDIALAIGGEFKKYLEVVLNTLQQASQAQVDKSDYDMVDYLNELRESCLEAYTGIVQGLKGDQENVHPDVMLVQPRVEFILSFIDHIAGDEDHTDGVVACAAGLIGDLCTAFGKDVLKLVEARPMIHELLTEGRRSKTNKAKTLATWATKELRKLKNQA
UniProt A9QM74: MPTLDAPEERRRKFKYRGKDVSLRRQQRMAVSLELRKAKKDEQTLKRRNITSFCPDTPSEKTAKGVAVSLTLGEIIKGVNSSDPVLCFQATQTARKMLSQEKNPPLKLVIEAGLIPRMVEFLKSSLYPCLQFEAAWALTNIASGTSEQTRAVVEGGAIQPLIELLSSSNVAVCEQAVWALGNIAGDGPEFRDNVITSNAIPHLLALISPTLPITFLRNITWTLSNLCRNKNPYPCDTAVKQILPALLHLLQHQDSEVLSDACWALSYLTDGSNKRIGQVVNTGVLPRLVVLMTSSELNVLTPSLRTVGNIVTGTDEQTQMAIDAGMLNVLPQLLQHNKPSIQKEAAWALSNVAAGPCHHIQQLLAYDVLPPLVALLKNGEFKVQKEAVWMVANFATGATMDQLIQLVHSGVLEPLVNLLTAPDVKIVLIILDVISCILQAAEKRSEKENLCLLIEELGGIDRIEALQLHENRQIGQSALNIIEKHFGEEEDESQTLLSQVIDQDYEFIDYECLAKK
UniProt O00505: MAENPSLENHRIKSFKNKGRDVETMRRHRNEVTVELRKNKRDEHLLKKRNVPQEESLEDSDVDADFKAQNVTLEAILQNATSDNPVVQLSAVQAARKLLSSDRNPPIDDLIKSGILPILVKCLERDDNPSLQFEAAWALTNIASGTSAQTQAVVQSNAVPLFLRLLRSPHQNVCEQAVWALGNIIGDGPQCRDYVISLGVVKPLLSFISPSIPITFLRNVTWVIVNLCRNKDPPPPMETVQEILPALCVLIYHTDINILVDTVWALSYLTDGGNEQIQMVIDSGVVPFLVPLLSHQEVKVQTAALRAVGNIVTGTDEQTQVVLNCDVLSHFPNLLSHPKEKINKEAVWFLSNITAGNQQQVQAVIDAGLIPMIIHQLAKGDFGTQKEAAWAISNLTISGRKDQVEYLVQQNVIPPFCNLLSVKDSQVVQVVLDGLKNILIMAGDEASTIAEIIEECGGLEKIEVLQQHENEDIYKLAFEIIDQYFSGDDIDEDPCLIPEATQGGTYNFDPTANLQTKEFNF

How the values were obtained:
[1] = molecular target: HA-MITF (human) (UniProt O75030); assay: co-IP; HA-IP from MCF-7 PR cells transfected with HA-MITF (WT or S49A) and the indicated importins; cells with OGT inhibition or PUGNAc as indicated
[2] = molecular target: HA-MITF (S49A) (human) (UniProt O75030); assay: as above
[3] = molecular target: GST-MITF with O-GlcNAcylation (human) (UniProt O75030); assay: pull-down; GST-MITF with or without in vitro O-GlcNAcylation on glutathione Sepharose beads, incubated at 4 °C overnight with lysates (NETN buffer) of MCF-7 PR cells transfected with the indicated importin α; only the target purified
[4] = molecular target: GST-MITF (non-O-GlcNAcylated) (human) (UniProt O75030); assay: as above

binding [1]	binding [2]	binding [3]	binding [4]	Substance
binds				FLAG-importin β (from UniProt Q14974 1-876)
binds	binds	binds	binds	FLAG-importin α7 (from UniProt O60684 1-536)
binds	binds	binds	binds	importin α8 (from UniProt A9QM74 1-516)
binds	binds	binds	binds	FLAG-importin α4 (from UniProt O00505 1-521)
